# Data: publication PMC6753149
# Chains of the proteins cited; added tags and fusions are not shown.
# UniProt P16370: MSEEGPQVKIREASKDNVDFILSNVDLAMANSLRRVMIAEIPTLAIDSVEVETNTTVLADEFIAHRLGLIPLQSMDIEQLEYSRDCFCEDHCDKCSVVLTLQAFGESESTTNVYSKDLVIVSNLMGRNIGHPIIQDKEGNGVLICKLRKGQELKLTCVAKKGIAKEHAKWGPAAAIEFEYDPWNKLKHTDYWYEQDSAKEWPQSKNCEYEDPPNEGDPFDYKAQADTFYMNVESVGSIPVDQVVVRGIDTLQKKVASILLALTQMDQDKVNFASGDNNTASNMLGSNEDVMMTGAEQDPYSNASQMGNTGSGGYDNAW
# No constants are given. Whether binding was seen depends on the method and setting. In cells and extracts the contact can be indirect. Some entries that bind do so weakly or less than the wild type. Where a sequence is shown, tags or fusion partners need not be part of it.
# B1: Hda1 (TAP-tagged) (protein, UniProt P53973 1-706)
# chain: MDSVMVKKEVLENPDHDLKRKLEENKEEENSLSTTSKSKRQVIVPVCMPKIHYSPLKTGLCYDVRMRYHAKIFTSYFEYIDPHPEDPRRIYRIYKILAENGLINDPTLSGVDDLGDLMLKIPVRAATSEEILEVHTKEHLEFIESTEKMSREELLKETEKGDSVYFNNDSYASARLPCGGAIEACKAVVEGRVKNSLAVVRPPGHHAEPQAAGGFCLFSNVAVAAKNILKNYPESVRRIMILDWDIHHGNGTQKSFYQDDQVLYVSLHRFEMGKYYPGTIQGQYDQTGEGKGEGFNCNITWPVGGVGDAEYMWAFEQVVMPMGREFKPDLVIISSGFDAADGDTIGQCHVTPSCYGHMTHMLKSLARGNLCVVLEGGYNLDAIARSALSVAKVLIGEPPDELPDPLSDPKPEVIEMIDKVIRLQSKYWNCFRRRHANSGCNFNEPINDSIISKNFPLQKAIRQQQQHYLSDEFNFVTLPLVSMDLPDNTVLCTPNISESNTIIIVVHDTSDIWAKRNVISGTIDLSSSVIIDNSLDFIKWGLDRKYGIIDVNIPLTLFEPDNYSGMITSQEVLIYLWDNYIKYFPSVAKIAFIGIGDSYSGIVHLLGHRDTRAVTKTVINFLGDKQLKPLVPLVDETLSEWYFKNSLIFSNNSHQCWKENESRKPRKKFGRVLRCDTDGLNNIIEERFEEATDFILDSFEEWSDEE
# Target: Rpb3, a subunit of RNA Pol II (S. cerevisiae (endogenous in yeast cells)) (UniProt P16370)
# Assay: co-IP; 1.5 mg whole cell extract with anti-Rpb3 antibody (BioLegend) and protein G sepharose, 4 °C, 4 h; 50 mM Tris-HCl pH 7.5, 0.1% NP-40, 150 mM NaCl; precipitates immunoblotted for the tagged proteins and Rpb3
binder,measurement,value
B1,binding,binds
